Experimental data from patent publication US8394824B2 (priority 2004, dated 2013).
Structures can show the parent of a compound that is named as a salt.

Test system: ex vivo ileum specimen

For `CN1[C@@H]2CC[C@H]1C[C@@H](OC(=O)C(CO)c1ccccc1)C2` (stereo partly shown) [atropine sulfate, reference compound], the “ileum contraction response resulted from electric irritation” value was “completely blocked”.
